{"sequences": {"note": "Sequences of proteins named here, by UniProt entry; tags and fusion partners are left off. A change or cut given only in a name is not applied to a line headed by its entry.", "UniProt Q01638": "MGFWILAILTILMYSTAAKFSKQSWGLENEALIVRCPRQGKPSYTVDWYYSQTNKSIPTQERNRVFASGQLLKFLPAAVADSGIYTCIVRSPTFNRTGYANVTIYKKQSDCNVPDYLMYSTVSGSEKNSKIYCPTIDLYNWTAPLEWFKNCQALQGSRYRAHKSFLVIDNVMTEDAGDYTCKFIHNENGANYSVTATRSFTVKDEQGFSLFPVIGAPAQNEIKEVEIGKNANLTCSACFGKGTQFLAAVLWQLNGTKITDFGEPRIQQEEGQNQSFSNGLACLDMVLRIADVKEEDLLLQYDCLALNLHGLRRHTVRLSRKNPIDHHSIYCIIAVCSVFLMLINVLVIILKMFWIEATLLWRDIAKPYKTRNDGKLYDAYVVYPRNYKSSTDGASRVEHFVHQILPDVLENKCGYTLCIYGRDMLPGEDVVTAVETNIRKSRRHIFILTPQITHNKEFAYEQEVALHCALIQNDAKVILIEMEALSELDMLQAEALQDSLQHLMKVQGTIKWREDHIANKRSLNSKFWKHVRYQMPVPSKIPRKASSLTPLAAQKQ"}, "source": "PubChem BioAssay AID1259354", "about": "(Paczesny and Yang Labs, IUPUI and University of Michigan, 2018)", "note": "Where “and” joins values, the source holds several entries; their conditions need not be identical. Equal values may be shown once. About 1,800 (2.3%) of roughly 78,000 compounds were called active. Inconclusive means that the source gave no clear call. Such entries were picked first, then a sample of the others. Cut-off read from the data, not from the text of the source: active = inhibition above about 30%; inconclusive = mostly about 10% to 28%; inactive = weaker than that."}
{"target": "Interleukin-1 receptor-like 1 (Homo sapiens) (UniProt Q01638)", "experiment": "blocks human ST2 binding to IL-33, primary screen, biochemical, AlphaLISA (AID 1259354)", "settings": "AlphaLISA ST2-Fc/biotin-IL-33 interaction, 1 h; at 17 µM, stronger effect = higher value"}
{"compound": "COc1cc(CN2CCSCC2)ccc1OCC(O)CN1CCCCCC1", "note": "(centres undefined)", "inhibition": "inconclusive: 11%"}
{"compound": "Cc1ccccc1-c1cnc(-c2cccnc2)nc1C1CCN(C(=O)c2ccc3cc[nH]c3c2)CC1", "inhibition": "inconclusive: 15%"}
{"compound": "O=C(c1ccnc(-n2cnnc2)c1)N1CCC2(CC1)C(=O)Nc1ccccc12", "inhibition": "inactive"}
{"compound": "OCCC1CN(Cc2cc3ccccc3s2)CCN1C1CCCC1", "note": "(centres undefined)", "inhibition": "inactive"}
{"compound": "COc1ccc(CC(=O)Nc2ccccc2OC)cc1", "inhibition": "inactive"}
{"compound": "Cc1nnc([C@H]2CCN(Cc3ccc(F)cc3)C2)o1", "inhibition": "inconclusive: 14%"}
{"compound": "COc1cc2c(cc1OC)C(C(=O)NCCC1=CCCCC1)C1c3ccccc3CCN1C2=O", "note": "(centres undefined)", "inhibition": "inconclusive: 10%"}
{"compound": "COCCNC(=O)c1ccc2c(c1)N(C)C(CC(=O)Nc1cnccc1C)CO2", "note": "(centres undefined)", "inhibition": "inactive"}
{"compound": "CCCCNC(=O)C1c2ccccc2C(=O)N2CCc3cc(OCC)c(OCC)cc3C12", "note": "(centres undefined)", "inhibition": "inactive"}
{"compound": "O=c1c([N+](=O)[O-])c(N2CCCCC2)c2ccccc2n1Cc1ccccc1", "inhibition": "inconclusive: 22%"}
{"compound": "Cc1c(C(=O)N2CCOC(CCc3ccccc3)C2)cnc2cc(=O)[nH]n12", "note": "(centres undefined)", "inhibition": "inconclusive: 11%"}
{"compound": "Cc1ccc(C(=O)c2c[nH]c3c(F)cccc3c2=O)cc1", "inhibition": "inconclusive: 10%"}
{"compound": "CCc1nc(SCC(=O)N2Cc3cnc(-c4ccccc4)nc3C2)n[nH]1", "inhibition": "inconclusive: 21%"}
{"compound": "COc1ccc(NC(=O)N[C@H]2CO[C@H]3[C@@H]2OC[C@H]3OC(=O)Nc2ccccc2)cc1", "inhibition": "inconclusive: 13%"}
{"compound": "Cc1nnc(SCCCNC(=O)c2cc(-c3ccccc3)nn2C)s1", "inhibition": "inconclusive: 10%"}
{"compound": "N#CC1=C(N)Oc2n[nH]c(C(F)(F)F)c2C1c1ccccc1Cl", "note": "(centres undefined)", "inhibition": "inconclusive: 13%"}
{"compound": "O=C(c1ccccc1)N1CCN=C1SCc1ccccc1Cl", "inhibition": "inactive"}
{"compound": "CCOc1ccc(/C=C(\\C#N)c2nc3ccccc3s2)cc1OC", "inhibition": "inconclusive: 28%"}
{"compound": "COc1ccc(CC(=O)Nc2ccc3n(c2=O)C[C@H]2C[C@@H]3CN(C(=O)c3cccc(C(=O)O)c3)C2)cc1", "inhibition": "inconclusive: 15%"}
{"compound": "Cc1c(Cl)c([N+](=O)[O-])nn1CCCC(=O)N(Cc1ccccc1)c1ccccc1", "inhibition": "inconclusive: 17% and inconclusive: 10%"}
{"compound": "CC(CN1CCN(C)CC1)c1ccccc1", "note": "(centres undefined)", "inhibition": "inconclusive: 13%"}
{"compound": "Cc1ccoc1C(=O)NCCc1csc(C(C)C)n1", "inhibition": "inconclusive: 15%"}
{"compound": "CCOC(=O)C1=NN(c2ccccc2)C2C(=O)N(c3ccc(Cl)cc3)C(=O)C12", "note": "(centres undefined)", "inhibition": "inconclusive: 16%"}
{"compound": "COCCCn1c(SCc2ccccc2C#N)nc2c(sc3ccccc32)c1=O", "inhibition": "inactive"}
{"compound": "COCCCNc1ncnc2scc(-c3ccccc3)c12", "inhibition": "inactive"}
{"compound": "CC(CCc1ccccc1)NC(=O)CN1CCCN(Cc2cccc(Cl)c2)S1(=O)=O", "note": "(centres undefined)", "inhibition": "inconclusive: 26%"}
{"compound": "CC(C)=CCc1c(O)cc(O)c2c1O[C@@H](c1ccc(O)cc1)[C@H](O)C2=O", "inhibition": "inconclusive: 11%"}
{"compound": "Cc1ccc(-c2ccnc(N[C@H](C)C(N)=O)n2)c(C)n1", "inhibition": "inconclusive: 10%"}
{"compound": "Cc1cccc(OCC(=O)Nc2ccc(S(=O)(=O)N3CCCCC3C)cc2)c1", "note": "(centres undefined)", "inhibition": "inactive"}
{"compound": "CCOc1ccccc1NS(=O)(=O)c1ccc([N+](=O)[O-])cc1", "inhibition": "inconclusive: 22%"}
{"compound": "COc1ccc(CCNc2oc(COc3ccc(Br)cc3)nc2C#N)cc1", "inhibition": "inconclusive: 28%"}
{"compound": "N#Cc1cccc(CN2C[C@H](O)C[C@H]2c2nc(-c3ccc(C(F)(F)F)cc3)no2)c1", "inhibition": "inactive"}
{"compound": "O[C@H]1C[C@@H]2CN(c3noc(-c4ccccc4)n3)C[C@@H]2C[C@@H]1O", "inhibition": "inconclusive: 21%"}
{"compound": "O=C1CCCC2=C1C(c1ccc(F)cc1)C1=C(N2)c2ccccc2C1=O", "note": "(centres undefined)", "inhibition": "inconclusive: 16%"}
{"compound": "COc1ccc(CC2CN(Cc3ccc(OC)c(F)c3)CCO2)cc1", "note": "(centres undefined)", "inhibition": "inconclusive: 13%"}
{"compound": "Cc1nc(CCNS(=O)(=O)NCc2ccccc2)sc1C", "inhibition": "inconclusive: 11%"}
{"compound": "Cc1ccccc1Cn1c(C(C)NC(=O)C(C)(C)C)nc2ccccc21", "note": "(centres undefined)", "inhibition": "inactive"}
{"compound": "CN(C)CCNC(=O)c1cc(-c2ccncc2)nc2ccccc12", "inhibition": "inconclusive: 13%"}
{"compound": "O=C(/C=C/c1ccc(Cl)cc1)Nc1cc2cccc([N+](=O)[O-])c2oc1=O", "inhibition": "inconclusive: 20%"}
{"compound": "CC(=O)N(CN1C(=O)C2CCC(C)CC2C1=O)c1ccc(C)c(Cl)c1", "note": "(centres undefined)", "inhibition": "inconclusive: 10%"}
{"compound": "COc1cccc(-c2[nH]nc3c2C(c2nc(C)n4ccccc24)CC(=O)N3)c1", "note": "(centres undefined)", "inhibition": "inconclusive: 11%"}
{"compound": "O=C(c1cc2n(n1)CCNC2)N1CCC(c2ccccc2Cl)C1", "note": "(centres undefined)", "inhibition": "inconclusive: 14%"}
{"compound": "CCN(CC)CCNC(=O)c1cn(CC)c2ccc(S(=O)(=O)N3CCOCC3)cc2c1=O", "inhibition": "inconclusive: 13%"}
{"compound": "COc1ccc(C2C(C#N)=C(N)OC3=C2C(=O)CCC3)cc1OC", "note": "(centres undefined)", "inhibition": "inactive"}
{"compound": "O=S(=O)(c1ccc(Cl)cc1)N1CC2[C@H]3C=C[C@H](C3)[C@H]2C1", "note": "(some centres undefined)", "inhibition": "inconclusive: 16%"}
{"compound": "CCc1ccc(-c2nc(CN3CCC(C(=O)N4CCN(c5ccccn5)CC4)CC3)c(C)o2)cc1", "inhibition": "inconclusive: 13%"}
{"compound": "CC1(C)CC(=O)C2=C(C1)Nc1nc(SCc3ccccc3)nn1C2c1cccc(O)c1", "note": "(centres undefined)", "inhibition": "inactive"}
{"compound": "COc1ccc2nc3c(nc2c1)C(=O)c1ccccc1-3", "inhibition": "active: 32%"}
{"compound": "Cc1ccc(CN(C)C(=O)[C@@H](O)Cc2ccccc2)o1", "inhibition": "inconclusive: 10%"}
{"compound": "CCOC(=O)c1c(NC(=O)c2cc([N+](=O)[O-])nn2Cc2ccccc2)sc(C)c1C", "inhibition": "inconclusive: 13%"}
{"compound": "CCC(Sc1nc2c(sc3ccccc32)c(=O)n1CCCOC)C(=O)N1CCOCC1", "note": "(centres undefined)", "inhibition": "inconclusive: 12%"}
{"compound": "CC1=Nc2ccccc2N=C(C)C1", "inhibition": "inactive"}
{"compound": "c1ccc(-n2cccc2CNC2CCCc3nc(-c4cccnc4)ncc32)nc1", "note": "(centres undefined)", "inhibition": "inactive"}
{"compound": "CCCCC(=O)Nc1ccc(NC(=O)c2ccc(F)cc2)cc1OC", "inhibition": "inactive"}
{"compound": "CCCCN(CCCC)S(=O)(=O)c1ccc(C(=O)Nc2nnc(C3CC3)o2)cc1", "inhibition": "inconclusive: 14%"}
{"compound": "CCCCN(CCCC)S(=O)(=O)c1ccc(C(=O)Nc2nnc(COC)o2)cc1", "inhibition": "inconclusive: 17%"}
{"compound": "CCO[C@H]1COC[C@@H]1Nc1ncc(C)c(N(C)C)n1", "inhibition": "inconclusive: 15%"}
{"compound": "CCOCCCNC(=O)C1(O)c2cc(Br)ccc2NC(=O)N1c1cccc(OC)c1", "note": "(centres undefined)", "inhibition": "inconclusive: 14%"}
{"compound": "O=C(CSCc1ccccc1)Nc1c(C(=O)Nc2cccc(F)c2)oc2ccccc12", "inhibition": "inconclusive: 19%"}
{"compound": "CC1=C(C(N)=O)C(c2ccc(F)cc2)n2nc(SCc3ccccc3)nc2N1", "note": "(centres undefined)", "inhibition": "inconclusive: 13%"}
{"compound": "O=C1N=c2ccccc2=CC1=Cc1c(O)n(-c2ccccc2)[nH]c1=O", "inhibition": "inconclusive: 23%"}
{"compound": "O=C(c1coc(COc2ccc(F)cc2Cl)n1)N1CCC1c1cccs1", "note": "(centres undefined)", "inhibition": "inconclusive: 11%"}
{"compound": "Cc1ccc(S(=O)(=O)NC(Cc2c[nH]c3ccccc23)C(=O)O)cc1", "note": "(centres undefined)", "inhibition": "inconclusive: 21%"}
{"compound": "CCOc1ccc(S(=O)(=O)Nc2cccc(Cl)c2)c2cccnc12", "inhibition": "inactive"}
{"compound": "CC(C)(C)c1csc(NC(=O)c2ccc(N3CCOCC3)c([N+](=O)[O-])c2)n1", "inhibition": "inconclusive: 16%"}
{"compound": "CN1CC2(CCCN(C(=O)c3cnn4ccccc34)C2)OC1=O", "note": "(centres undefined)", "inhibition": "inactive"}
{"compound": "Cc1ccccc1NC1=CC(=O)CC(c2ccccc2)C1", "note": "(centres undefined)", "inhibition": "inactive"}
{"compound": "CCN(CC)c1ccc(CN2CCSCC2)cc1", "inhibition": "inconclusive: 26%"}
{"compound": "O=C(/C=C/c1ccc(O)cc1)c1ccc(O)cc1O", "inhibition": "inconclusive: 10%"}
{"compound": "O=C1CCCC2=C1C(c1cccnc1)n1nc(SCc3ccccc3F)nc1N2", "note": "(centres undefined)", "inhibition": "inconclusive: 18%"}
{"compound": "COc1ccc(Br)c2c1-c1nc(NC(=O)c3cccc(F)c3)sc1C2", "inhibition": "inactive"}
{"compound": "Cc1ccc(C(=O)NCc2ccc([N+](=O)[O-])cc2)cc1", "inhibition": "inconclusive: 14%"}
{"compound": "CC(CO)NCCC(=O)Nc1ccc(N(C)C)cc1", "note": "(centres undefined)", "inhibition": "inconclusive: 13%"}
{"compound": "Cc1noc(C)c1S(=O)(=O)N1CCN(c2cccc(Cl)c2)CC1", "inhibition": "inactive"}
{"compound": "O=C(NC1CCCCCCC1)c1cc(F)c(F)cc1Cl", "inhibition": "inconclusive: 12%"}
{"compound": "CC(=O)N1CCC(C(=O)NCCc2csc(C(C)C)n2)CC1", "inhibition": "inactive"}
{"compound": "COc1ccc(N=Cc2cc(Br)cc(Br)c2O)c(OC)c1", "inhibition": "inactive"}
{"compound": "CCOc1ccc(Cn2c(CNS(=O)(=O)c3ccc(C(C)C)cc3)nc3cccnc32)cc1", "inhibition": "inactive"}
{"compound": "C=Cc1cccc(CN(Cc2cnn(C)c2)C2CC2)c1", "inhibition": "inconclusive: 11%"}
{"compound": "CCc1ccc(S(=O)(=O)N=C2C=C(Br)C(=O)c3ccccc32)cc1", "inhibition": "active: 36%"}
{"compound": "Cc1ccc(NC(=O)CSc2nc3c(c(=O)n2-c2ccc(C)cc2)SCC3)cc1", "inhibition": "inconclusive: 22%"}
{"compound": "Nc1ccnc(-c2cccc3cccnc23)c1", "inhibition": "inconclusive: 11%"}
{"compound": "COc1ccc(-c2nc3cc(N=Cc4cc(C(=O)O)ccc4O)ccc3o2)cc1", "inhibition": "inconclusive: 19%"}
{"compound": "Fc1ccccc1N1CCN(C/C=C/c2ccccc2)CC1", "inhibition": "inconclusive: 11%"}
{"compound": "COc1cc(C(C)=O)ccc1Oc1ncnc(N)c1[N+](=O)[O-]", "inhibition": "inconclusive: 17%"}
{"compound": "COc1ccc2oc(=O)c(-c3csc(Nc4ccccc4F)n3)cc2c1", "inhibition": "inconclusive: 18%"}
{"compound": "O=C(c1cc(COc2cccc3cnccc23)on1)N1CCCC1c1ccccn1", "note": "(centres undefined)", "inhibition": "inconclusive: 15%"}
{"compound": "O=C(CCC1=NS(=O)(=O)c2ccccc2N1)NC1CCCCCC1", "inhibition": "inactive"}
{"compound": "COc1ccc(C)cc1NS(=O)(=O)c1cc(Br)cc2c1N(C(=O)C1CC1)CC2", "inhibition": "inconclusive: 14%"}
{"compound": "O=C(C[C@@H]1CCNC[C@@H]1Cc1cc(-c2ccccc2)on1)N1CCc2ccccc2C1", "inhibition": "inconclusive: 10%"}
{"compound": "CC(=O)c1ccc(N=Cc2c(C)[nH]n(-c3ccccc3)c2=O)cc1", "inhibition": "inactive"}
{"compound": "Cc1ccccc1Cn1c(-c2ccccc2F)nc2ccccc2c1=O", "inhibition": "inactive"}
{"compound": "Cc1cccc2nc(-c3ccco3)c(Nc3ccc4c(c3)OCO4)n12", "inhibition": "inconclusive: 17%"}
{"compound": "Cc1cc(=O)oc2cc(Cl)c(OC(=O)c3ccccc3)cc12", "inhibition": "inactive"}
